# For at least one entry, the source does not settle the construct or the ends of the probe. For some assays here: At least one verdict was read from the data and is not stated in words by the source. Tags and fusion partners may be left off the protein sequences shown.
# How the values were obtained:
# dSNF1-101 (RRM1) [1] = target: T1, dSNF1-101 (RRM1) (UniProt P43332); assay: NMR chemical shift perturbation; conditions: 300 uM protein, 1.1 mM RNA; NMR: 50 mM KCl, 20 mM sodium cacodylate pH 6.5, 2 mM EDTA, 23 C; recombinant protein; residues 1-101; label: 32P internal (UTP, CTP) for filter binding; letters put together from the description
# T1 sequence (looked up): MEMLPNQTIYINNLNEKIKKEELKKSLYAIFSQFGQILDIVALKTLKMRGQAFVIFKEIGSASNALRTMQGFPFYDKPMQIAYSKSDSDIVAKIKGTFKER
# dSNF1-101 (RRM1) [2] = target: T1, dSNF1-101 (RRM1); assay: filter binding; conditions: without dU2A', RRM1 said to bind dU2SLIV 10 to 100-fold weaker than dU1SLII, depending on salt; filter binding: KCl varied, other conditions not stated; recombinant protein; residues 1-101; label: 32P internal (UTP, CTP) for filter binding; letters put together from the description
sequence,measurement,setting,value
"GGCCGGUAUUGCAGUACCGCCGGGUCC [dU2SLIV (T7, NMR and filter binding)]",binding result,dSNF1-101 (RRM1) [1],binds
same,binding result,dSNF1-101 (RRM1) [2],binds
